Efficacy data for 1 molecule are collected here from patent US20170173002A1, “Compositions and Methods for Treating an Infection” (CMPD LICENSING, LLC, priority 2015, published 2017).

The experiment concerns Mycoplasma pneumoniae. Briefly: Expected efficacy of antibiotic agents. The note with it: expected efficacy against Mycoplasma pneumoniae.

Molecules are shown by their SMILES.

With `O=C(O)c1cn(C2CC2)c2cc(N3CCNCC3)c(F)cc2c1=O` [Ciprofloxacin, ciprofloxacin], the Efficacy result is “yes”.
